{"sequences": {"note": "Chains of the proteins cited; added tags and fusions are not shown.", "UniProt P49841": "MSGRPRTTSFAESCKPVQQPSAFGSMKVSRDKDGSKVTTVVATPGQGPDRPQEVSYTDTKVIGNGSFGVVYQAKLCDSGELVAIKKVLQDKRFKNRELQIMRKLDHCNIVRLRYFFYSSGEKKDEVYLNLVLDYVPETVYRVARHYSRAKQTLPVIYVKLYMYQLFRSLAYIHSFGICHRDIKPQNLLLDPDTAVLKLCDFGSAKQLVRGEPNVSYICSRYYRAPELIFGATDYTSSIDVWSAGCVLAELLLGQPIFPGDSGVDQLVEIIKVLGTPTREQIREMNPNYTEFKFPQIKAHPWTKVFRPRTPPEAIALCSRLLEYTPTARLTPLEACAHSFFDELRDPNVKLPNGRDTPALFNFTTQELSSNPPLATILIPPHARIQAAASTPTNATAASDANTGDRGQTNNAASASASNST"}, "source": "paper doi:10.1101/2023.02.03.527086", "biological_target": "GSK3β-Flag fusion protein (pcGSK3B-Flag) (UniProt P49841)", "assay": "co-IP", "note": "These are yes or no findings as the source states them, for the method shown. Binding seen in cells or lysates may run through a third protein. Some entries that bind do so weakly or less than the wild type. Where a sequence is shown, tags or fusion partners need not be part of it."}
{"binder": "TBK1 co-precipitated with GSK3β-Flag from HEK293 cells (enzyme, UniProt Q9UHD2 1-729) MQSTSNHLWLLSDILGQGATANVFRGRHKKTGDLFAIKVFNNISFLRPVDVQMREFEVLKKLNHKNIVKLFAIEEETTTRHKVLIMEFCPCGSLYTVLEEPSNAYGLPESEFLIVLRDVVGGMNHLRENGIVHRDIKPGNIMRVIGEDGQSVYKLTDFGAARELEDDEQFVSLYGTEEYLHPDMYERAVLRKDHQKKYGATVDLWSIGVTFYHAATGSLPFRPFEGPRRNKEVMYKIITGKPSGAISGVQKAENGPIDWSGDMPVSCSLSRGLQVLLTPVLANILEADQEKCWGFDQFFAETSDILHRMVIHVFSLQQMTAHKIYIHSYNTATIFHELVYKQTKIISSNQELIYEGRRLVLEPGRLAQHFPKTTEENPIFVVSREPLNTIGLIYEKISLPKVHPRYDLDGDASMAKAITGVVCYACRIASTLLLYQELMRKGIRWLIELIKDDYNETVHKKTEVVITLDFCIRNIEKTVKVYEKLMKINLEAAELGEISDIHTKLLRLSSSQGTIETSLQDIDSRLSPGGSLADAWAHQEGTHPKDRNVEKLQVLLNCMTEIYYQFKKDKAERRLAYNEEQIHKFDKQKLYYHATKAMTHFTDECVKKYEAFLNKSEEWIRKMLHLRKQLLSLTNQCFDIEEEVSKYQEYTNELQETLPQKMFTASSGIKHTMTPIYPSSNTLVEMTLGMKKLKEEMEGVVKELAENNHILERFGSLTMDGGLRNVDCL", "values": [{"measurement": "binding", "value": "binds"}]}
